In patent publication US5747448A (Meiji Seika Kaisha, Ltd., priority 1993, dated 1998):

assay: general procedure: solution-phase peptide synthesis; DCC/HOBt (fragment condensation); EDCI.HCl/HOBt/NMM with alkali metal chlorides; conditions: coupling step

Substance	step yield
Boc-(L-MeLeu-D-isoLEUA-L-MeLeu-D-PhLac)2 -OBn	37.3%
Boc-L-MeLeu-D-LEUA-L-MeLeu-D-Lac-L-MeLeu-D-PhLac-L-MeLeu-D-Lac-OBn	73%
Boc-L-MeLeu-D-PhLac-L-Leu-D-Lac-OBn	90%
Boc-L-MeLeu-D-Lac-L-MeLeu-D-TYRA(OBn)-L-MeLeu-D-Lac-L-MeLeu-D-PhLac-OBn	46.0%
Boc-L-MeLeu-D-Lac-L-MeLeu-D-PhLac-L-MeLeu-D-norLEUA-L-MeLeu-D-PhLac-OBn	80.5%
Boc-(-L-MeLeu-D-Lac-)2 -OBn	78%
Boc-L-MeLeu-D-isoLEUA-L-MeLeu-D-PhLac-OBn	47.9%
Boc-(L-MeLeu-D-VALA-L-MeLeu-D-PhLac)2-OBn	67%
Boc-(L-MeLeu-D-OctA-L-MeLeu-D-Lac)2 -OBn	53.8%
Boc-(-L-MeLeu-D-Lac-)4 -OBn	83%
Boc-L-MeLeu-D-PhLac-L-MeLeu-D-Lac-OBn	67%
Boc-(L-MeLeu-D-Lac-L-Leu-D-PhLac)2 -OBn	49.7%
Boc-L-MeLeu-D-OctA-L-MeLeu-D-Lac-L-MeLeu-D-PhLac-L-MeLeu-D-Lac-OBn	68.4%
Boc-L-MeLeu-D-Lac-L-MeLeu-D-PhLac-L-MeLeu-D-Lac-OBn	75%
Boc-L-MeLeu-D-norLEUA-L-MeLeu-D-PhLac-OBn	52.5%
Boc-L-MeLeu-D-Lac-L-Leu-D-PhLac-OBn	72.2%
Boc-(L-MeLeu-D-Lac-L-MeLeu-D-TYRA(OBn))2 -O-All	44.4%
Boc-(L-MeLeu-D-PhLac-L-Leu-D-Lac)2 -OBn	70.4%
Boc-(L-MeLeu-D-VALA-L-MeLeu-D-Lac)2 -OBn	64.0%
Boc-L-MeLeu-D-OctA-L-MeLeu-D-Lac-OBn	56.8%
Boc-L-MeLeu-D-VALA-L-MeLeu-D-Lac-OBn	52%
Boc-(L-MeLeu-D-norLEUA-L-MeLeu-D-PhLac)2 -OBn	54.5%
Boc-L-MeLeu-D-VALA-L-MeLeu-D-PhLac-OBn	74.2%
Boc-L-MeLeu-D-Lac-L-MeLeu-D-TYRA(OBn)-O-All	77.4%

same assay, conditions: cyclisation step

Substance	cyclisation yield
cyclo-(L-MeLeu-D-Lac-L-MeLeu-D-TYRA(OBn))2	60.5%
cyclo-(L-MeLeu-D-Lac-L-MeLeu-D-PhLac-L-MeLeu-D-norLEUA-L-MeLeu-D-PhLac)	82.0%
cyclo-(-L-Meleu-D-Lac-L-MeLeu-D-TYRA-L-MeLeu-D-Lac-L-MeLeu-D-PhLac)	33%
Cyclo-(L-MeLeu-D-PhLac-L-Leu-D-Lac)2	62%
Cyclo-(L-MeLeu-D-isoLEUA-L-MeLeu-D-PhLac)2	29.0%
cyclo-(-L-MeLeu-D-Lac-L-MeLeu-D-PhLac-L-MeLeu-D-Lac-L-MeLeu-D-LEUA-)	44%
cyclo(L-MeLeu-D-VALA-L-MeLeu-D-PhLac)2	56.5%
cyclo-(L-MeLeu-D-VALA-L-MeLeu-D-Lac)2	92%
Cyclo-(L-MeLeu-D-norLEUA-L-MeLeu-D-PhLac)2	35.8%
cyclo-(L-MeLeu-D-Lac-L-Leu-D-PhLac)2	55.8%
cyclo-(L-MeLeu-D-OctA-L-MeLeu-D-Lac)2	92%
cyclo-(L-MeLeu-D-Lac-)4	86%

same assay, conditions: late stage modification step

Substance	step yield
cyclo-(L-MeLeu-D-PhLac-L-MeLeu-D-Lac-L-MeLeu-D-TYRA(O-Tr)-L-MeLeu-D-Lac)	56%
Boc-(-L-MeLeu-D-Lac-)2 -OH	100%
cyclo-(L-MeLeu-D-PhLac-L-MeLeu-D-Lac-L-MeLeu-D-TYRA(3,5-di-Cl)-L-MeLeu-D-Lac)	37.2%
cyclo-(L-MeLeu-D-PhLac-L-MeLeu-D-Lac-L-MeLeu-D-TYRA(O-Oct)-L-MeLeu-D-Lac)	70.6%
Boc-(L-MeLeu-D-Lac-L-MeLeu-D-TYRA(OBn))2 -O-BH	100%
cyclo-(L-MeLeu-D-PhLac-L-MeLeu-D-Lac-L-MeLeu-D-TYRA(O-All)-L-MeLeu-D-Lac)	73.8%
cyclo-(L-MeLeu-D-Lac-L-MeLeu-D-TYRA)2	63.0%
cyclo-(L-MeLeu-D-PhLac-L-MeLeu-D-Lac-L-MeLeu-D-TYRA(O-n-Pr)-L-MeLeu-D-Lac)	47%
cyclo-(L-MeLeu-D-PhLac-L-MeLeu-D-Lac-L-MeLeu-D-TYRA(O-Me,3,5-di-I)-L-MeLeu-D-Lac)	61.9%
cyclo-(L-MeLeu-D-PhLac-L-MeLeu-D-Lac-L-MeLeu-D-TYRA(O-n-Bu)-L-MeLeu-D-Lac)	73.7%
H-L-MeLeu-D-PhLac-L-MeLeu-D-Lac-OBn	98%
cyclo-(L-MeLeu-D-PhLac-L-MeLeu-D-Lac-L-MeLeu-D-TYRA(OBn)-L-MeLeu-D-Lac)	95.8%
H-(-L-MeLeu-D-Lac-)2 -OBn	100%
cyclo-(L-MeLeu-D-PhLac-L-MeLeu-D-Lac-L-MeLeu-D-TYRA(3,5-diiode)-L-MeLeu-D- Lac)	42.4%
cyclo-(L-MeLeu-D-PhLac-L-MeLeu-D-Lac-L-MeLeu-D-TYRA(O-THP)-L-MeLeu-D-Lac)	91%
cyclo-(L-MeLeu-D-PhLac-L-MeLeu-D-Lac-L-MeLeu-D-TYRA(3,5-di-Br,O-Me)-L-MeLeu-D-Lac)	53.1%
cyclo-(L-MeLeu-D-PhLac-L-MeLeu-D-Lac-L-MeLeu-D-TYRA(3,5-di-Br)-L-MeLeu-D-Lac)	89.0%
cyclo-(L-MeLeu-D-PhLac-L-MeLeu-D-Lac-L-MeLeu-D-TYRA(OCOO-isoBu)-L-MeLeu-D- Lac)	58.6%
H-L-MeLeu-D-Lac-L-MeLeu-D-TYRA(OBn)-O-All	94.0%
cyclo-(L-MeLeu-D-PhLac-L-MeLeu-D-Lac-L-MeLeu-D-TYRA(O-t-Bu)-L-MeLeu-D-Lac)	77.6%
cyclo-(L-MeLeu-D-PhLac-L-MeLeu-D-Lac-L-MeLeu-D-TYRA(O-iso-Pr)-L-MeLeu-D-Lac)	50%

same assay, conditions: lipidation step

Substance	step yield
cyclo-(L-MeLeu-D-PhLac-L-MeLeu-D-Lac-L-MeLeu-D-TYRA(OCOC17 H35)-L-MeLeu-D-Lac)	67.1%
